# Data: patent EP2545914A1, “2-amino-2-oxoethyl trans-3-[5-(6-methoxy-naphtalen-1-yl)-1,3-dioxan-2-yl]propyl-carbamate for use in the treatment of persistent cancer pain” (SANOFI, priority 2011, dated 2013)
# System: UDP-glucuronosyl transferase
# Experiment: in vitro
# Conditions: human, HLM 0.5 mg/mL, morphine 0.1-7.5 mM
structure (smiles),measurement,setting,value
CN1CC[C@]23c4c5ccc(O)c4O[C@H]2[C@@H](O)C=C[C@H]3[C@H]1C5 [Morphine],Km at 30 min,"pH 7.4, Km (M3G)",2590 µM
same,Km at 30 min,"pH 7.4, Km (M6G)",2110 µM
